Experimental data from patent publication US20230416345A1, “NEW TYPE II COLLAGEN BINDING PROTEINS” (Navigo Proteins GmbH, priority 2020, published 2023).
Results are given in words; binding and its absence hold for the method and conditions named. Some binding calls cover weakened binding; strength is not graded here.

Sequences of proteins named here, by UniProt entry; tags and fusion partners are left off. A change or cut given only in a name is not applied to a line headed by its entry. Residues count along the entry.
UniProt P02452: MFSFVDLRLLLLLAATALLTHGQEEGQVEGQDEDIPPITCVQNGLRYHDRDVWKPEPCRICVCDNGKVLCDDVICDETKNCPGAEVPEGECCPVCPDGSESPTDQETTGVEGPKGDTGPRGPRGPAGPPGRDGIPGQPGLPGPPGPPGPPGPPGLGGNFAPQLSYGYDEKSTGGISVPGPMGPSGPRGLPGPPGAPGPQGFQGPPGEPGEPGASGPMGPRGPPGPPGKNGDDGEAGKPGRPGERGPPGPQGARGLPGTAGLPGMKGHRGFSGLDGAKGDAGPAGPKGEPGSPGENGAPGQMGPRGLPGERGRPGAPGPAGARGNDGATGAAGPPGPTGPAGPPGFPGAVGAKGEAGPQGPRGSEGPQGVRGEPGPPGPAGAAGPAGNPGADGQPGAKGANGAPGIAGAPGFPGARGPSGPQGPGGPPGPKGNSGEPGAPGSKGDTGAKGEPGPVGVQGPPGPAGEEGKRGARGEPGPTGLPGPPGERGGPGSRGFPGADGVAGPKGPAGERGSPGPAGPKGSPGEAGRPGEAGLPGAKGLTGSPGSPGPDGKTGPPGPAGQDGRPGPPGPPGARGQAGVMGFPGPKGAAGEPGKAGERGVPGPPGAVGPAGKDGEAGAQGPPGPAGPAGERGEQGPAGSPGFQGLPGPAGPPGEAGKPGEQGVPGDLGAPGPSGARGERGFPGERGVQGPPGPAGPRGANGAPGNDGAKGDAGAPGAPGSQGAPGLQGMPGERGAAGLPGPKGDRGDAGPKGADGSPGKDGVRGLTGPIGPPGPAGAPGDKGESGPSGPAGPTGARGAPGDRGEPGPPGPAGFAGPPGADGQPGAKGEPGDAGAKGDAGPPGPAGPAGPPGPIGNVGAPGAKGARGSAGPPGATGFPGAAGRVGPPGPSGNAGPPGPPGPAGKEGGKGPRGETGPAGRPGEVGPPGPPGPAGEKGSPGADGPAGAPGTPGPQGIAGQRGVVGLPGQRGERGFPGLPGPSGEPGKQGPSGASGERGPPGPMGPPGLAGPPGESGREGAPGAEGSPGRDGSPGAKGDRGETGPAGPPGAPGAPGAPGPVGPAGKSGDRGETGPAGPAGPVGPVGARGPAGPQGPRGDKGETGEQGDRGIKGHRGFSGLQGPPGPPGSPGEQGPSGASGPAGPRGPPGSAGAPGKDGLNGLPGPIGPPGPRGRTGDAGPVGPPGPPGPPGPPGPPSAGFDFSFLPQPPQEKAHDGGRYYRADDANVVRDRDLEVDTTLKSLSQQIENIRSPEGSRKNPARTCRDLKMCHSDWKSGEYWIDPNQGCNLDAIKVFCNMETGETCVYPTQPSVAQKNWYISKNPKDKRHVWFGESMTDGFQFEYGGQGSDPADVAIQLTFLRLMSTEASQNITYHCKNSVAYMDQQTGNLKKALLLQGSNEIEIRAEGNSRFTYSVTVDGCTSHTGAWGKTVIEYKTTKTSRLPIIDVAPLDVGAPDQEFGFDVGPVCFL
UniProt P08123: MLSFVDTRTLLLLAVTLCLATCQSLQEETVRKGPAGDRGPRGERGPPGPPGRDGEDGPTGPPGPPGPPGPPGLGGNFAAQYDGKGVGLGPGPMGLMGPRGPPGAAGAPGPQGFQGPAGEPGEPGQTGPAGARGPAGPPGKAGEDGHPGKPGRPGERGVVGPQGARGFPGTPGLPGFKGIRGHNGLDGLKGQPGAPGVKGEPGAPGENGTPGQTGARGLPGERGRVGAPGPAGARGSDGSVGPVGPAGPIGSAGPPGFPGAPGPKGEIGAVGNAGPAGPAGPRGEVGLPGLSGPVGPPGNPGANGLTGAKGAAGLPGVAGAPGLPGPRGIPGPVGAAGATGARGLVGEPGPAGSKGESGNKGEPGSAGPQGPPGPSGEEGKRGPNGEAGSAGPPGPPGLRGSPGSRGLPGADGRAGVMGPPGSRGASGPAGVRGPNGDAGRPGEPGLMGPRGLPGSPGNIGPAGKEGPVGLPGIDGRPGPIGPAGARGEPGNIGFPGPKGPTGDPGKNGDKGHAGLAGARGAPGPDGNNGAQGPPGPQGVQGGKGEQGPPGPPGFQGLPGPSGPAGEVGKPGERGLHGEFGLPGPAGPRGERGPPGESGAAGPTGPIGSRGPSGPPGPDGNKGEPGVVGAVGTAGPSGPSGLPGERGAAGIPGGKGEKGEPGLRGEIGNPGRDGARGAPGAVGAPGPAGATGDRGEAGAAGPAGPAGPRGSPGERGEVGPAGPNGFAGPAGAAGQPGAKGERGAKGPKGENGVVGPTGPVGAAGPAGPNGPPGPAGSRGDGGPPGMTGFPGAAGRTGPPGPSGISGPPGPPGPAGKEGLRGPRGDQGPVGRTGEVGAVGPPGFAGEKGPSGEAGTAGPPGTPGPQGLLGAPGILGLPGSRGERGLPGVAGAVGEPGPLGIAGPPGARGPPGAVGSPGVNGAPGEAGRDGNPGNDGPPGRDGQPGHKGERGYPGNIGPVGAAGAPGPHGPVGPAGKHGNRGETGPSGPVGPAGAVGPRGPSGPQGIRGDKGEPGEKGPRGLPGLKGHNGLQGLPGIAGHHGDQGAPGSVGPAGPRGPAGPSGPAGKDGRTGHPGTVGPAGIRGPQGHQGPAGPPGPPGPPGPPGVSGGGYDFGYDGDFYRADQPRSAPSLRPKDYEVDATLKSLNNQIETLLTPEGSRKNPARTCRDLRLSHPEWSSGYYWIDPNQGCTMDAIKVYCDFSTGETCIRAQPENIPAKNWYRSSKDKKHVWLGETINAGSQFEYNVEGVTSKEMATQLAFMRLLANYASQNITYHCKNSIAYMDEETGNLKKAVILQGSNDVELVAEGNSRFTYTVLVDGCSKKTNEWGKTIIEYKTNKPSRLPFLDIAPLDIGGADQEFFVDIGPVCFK
UniProt P02461, residues 154-1221: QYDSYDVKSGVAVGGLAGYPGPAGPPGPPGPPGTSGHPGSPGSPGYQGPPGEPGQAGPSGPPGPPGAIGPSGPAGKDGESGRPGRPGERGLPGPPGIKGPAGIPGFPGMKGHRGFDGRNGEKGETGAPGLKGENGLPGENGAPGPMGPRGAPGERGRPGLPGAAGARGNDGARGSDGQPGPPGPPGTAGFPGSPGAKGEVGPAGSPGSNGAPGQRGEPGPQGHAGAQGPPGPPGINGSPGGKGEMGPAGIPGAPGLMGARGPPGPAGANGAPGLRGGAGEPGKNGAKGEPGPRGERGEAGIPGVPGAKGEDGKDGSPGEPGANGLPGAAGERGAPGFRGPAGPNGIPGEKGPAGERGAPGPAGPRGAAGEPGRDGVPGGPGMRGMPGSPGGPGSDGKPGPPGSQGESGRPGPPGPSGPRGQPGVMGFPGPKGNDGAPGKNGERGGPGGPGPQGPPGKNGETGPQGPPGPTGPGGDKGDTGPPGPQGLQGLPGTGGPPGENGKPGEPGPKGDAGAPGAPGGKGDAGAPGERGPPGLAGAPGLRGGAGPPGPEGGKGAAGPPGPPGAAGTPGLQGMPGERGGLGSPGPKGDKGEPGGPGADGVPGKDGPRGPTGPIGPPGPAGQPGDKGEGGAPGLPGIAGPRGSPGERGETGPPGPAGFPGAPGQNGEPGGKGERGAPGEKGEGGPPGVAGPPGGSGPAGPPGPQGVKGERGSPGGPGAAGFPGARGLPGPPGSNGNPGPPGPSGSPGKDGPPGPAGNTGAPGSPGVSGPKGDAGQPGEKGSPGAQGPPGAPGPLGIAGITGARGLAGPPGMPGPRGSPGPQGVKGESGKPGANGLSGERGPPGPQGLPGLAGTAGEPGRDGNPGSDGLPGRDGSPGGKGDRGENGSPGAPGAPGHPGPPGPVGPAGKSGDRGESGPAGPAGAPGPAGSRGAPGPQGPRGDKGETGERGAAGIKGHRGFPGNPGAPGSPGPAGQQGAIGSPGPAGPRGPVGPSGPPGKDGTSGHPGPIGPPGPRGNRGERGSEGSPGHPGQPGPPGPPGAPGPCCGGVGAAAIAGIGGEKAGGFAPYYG

What was measured:
[1] = molecular target: T1, human collagen type I (human) (UniProt P02452+P08123); assay: ELISA
[2] = molecular target: human collagen type III (human) (UniProt P02461); assay: ELISA
[3] = molecular target: T1, human collagen type I (human); assay: SPR (Biacore 3000)
[4] = molecular target: human collagen type III (human) (UniProt P02461); assay: SPR (Biacore 3000)

Measured: binding

B1: 211190 (SEQ ID NO: 1) (designed binder, not shown: small tags and cut ends)
chain: NAASHDEAQLSALVEIWDLPNLTTRQKQKFIYSLQRDPSVSKEVLGEAQKLNDSQAPK
binds: all assays above
